# Laboratory results from PubChem BioAssay AID493014 (National Center for Advancing Translational Sciences (NCATS), 2011).
# Where “and” joins values, the source holds several entries; their conditions need not be identical. Equal values may be shown once. This is one part of the list. The main result of the screen is listed elsewhere. These columns were measured beside it and carry no call. Most of these compounds were active or inconclusive in the main read-out, so they are no random draw. The note in brackets gives the kind of curve behind each potency; many fits are weak.
# Experiment: qHTS Assay to Find Inhibitors of Chronic Active B-Cell Receptor Signaling
# Conditions: ABC-DLBCL IkBa-CBG/CBR reporter, luminescence ratio (green luciferase fused to IkBa over red control in TMD8 lymphoma cells), 4 h
# How it was run: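 TMD8 ABC-DLBCL cells carrying doxycycline-inducible green luciferase fused to IkappaBalpha plus unfused red luciferase were exposed to compounds (up to 46 uM) for 4 hrs at 37C. Activity came from the overlap-corrected green/red luminescence ratio.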
# [1] = measured here: CBR red luminescence, cell number
# [2] = measured here: IkBa-CBG green luminescence
compound,measurement,setting,value
Cc1ccc(C)c(N(CC(=O)NC2CCCC2)C(=O)c2oc(C(C)(C)C)cc2C)c1,AC50,[1],"20.6 µM [falling, partial curve, poor fit]"
COCCNC(=O)c1onc(CSc2cccc(C)c2)c1C(=O)O,AC50,[1],"14.1 µM [falling, single point]"
CCN(CC)C(=O)CN1C(=O)C2(OCC(C)(c3ccccc3)CO2)c2ccccc21 (configuration not stated),AC50,[1],"35.5 µM [rising, partial curve, poor fit]"
COc1ccc2c(c1)c(CC(=O)Nc1cccc(S(N)(=O)=O)c1)c(C)n2C(=O)c1ccc(Cl)cc1,AC50,[1],"11.2 µM [falling, partial curve, poor fit]"
Cc1cc(C)c(S(=O)(=O)ON2C(=O)c3ccccc3C2=O)cc1C,AC50,[1],"12.6 µM [rising, partial curve, poor fit]"
CN(C)c1nc(OCCNC(=O)COc2ccc(Cl)cc2Cl)nc(N2CCOCC2)n1,AC50,[1],"5.8 µM [rising, single point]"
O=C(NCc1ccco1)c1cc2n(n1)C(C(F)(F)F)CC(c1ccc(Br)cc1)N2 (configuration not stated),AC50,[1],"22.4 µM [rising, single point]"
Cc1c(/C=C2\SC(=Nc3cccc(C(=O)O)c3)NC2=O)c2ccccc2n1C,AC50,[1],"17.8 µM [falling, single point]"
COc1ccc(-n2cnc3cc(N)ccc32)cc1,AC50,[1],"29.1 µM [rising, single point]"
CN(CC(=O)Nc1ccc(OC(F)(F)F)cc1)C(=O)Cn1c(=O)cnc2ccccc21,AC50,[1],"0.82 µM [falling, full curve, poor fit]"
COc1cccc(CNc2ncc(C(=O)Nc3cc(OC)c(OC)c(OC)c3)c(C)n2)c1,AC50,[1],"2 µM [falling, partial curve, poor fit]"
Cc1ccc(-n2nc(-c3ccc(OC(F)(F)F)cc3)cc2N)cc1C,AC50,[1],"5.62 µM [rising, full curve]"
Cc1ccc(NN=Nc2nc3c([nH]2)c(=O)n(C)c(=O)n3C)cc1,AC50,[2],"25.9 µM [rising, partial curve, poor fit]"
Oc1c(Br)cc(C2N=C(c3ccccc3)NO2)cc1Br (configuration not stated),AC50,[1],"0.891 µM [rising, full curve, poor fit]"
Cn1c(NC(=S)Nc2ccccc2)nc2ccccc21,AC50,[1],"7.31 µM [falling, partial curve]"
Cc1cc(=O)oc2c3c(cc(OCC(=O)NCc4ccncc4)c12)OC(C)(C)CC3,AC50,[1],"4.47 µM [rising, full curve, poor fit]"
COc1ccc(/C=C(\NC(=O)c2ccccc2)C(=O)NCc2cccnc2)cc1,AC50,[1],"35.5 µM [falling, single point]"
CC(=O)c1cccc(-c2csc(N3CCC(C(N)=O)CC3)n2)c1,AC50,[1],"29.1 µM [rising, single point] and 7.31 µM [rising, partial curve]"
c1cncc(Nc2c3ccccc3nc3ccccc23)c1,AC50,[1],"14.1 µM [falling, single point]"
Cc1cccc(Nc2nc(-c3ccc(O)c(O)c3)cs2)n1,AC50,[1],"17.8 µM [falling, partial curve]"
CCOC(=O)CSC1=C(C#N)C(c2ccc(OC)cc2)C2=C(CC(C)(C)CC2=O)N1 (configuration not stated),AC50,[1],"35.5 µM [falling, single point]"
CCOc1ccc(/C(O)=C2/C(=O)C(=O)N(c3ccccn3)C2c2ccc(Cl)cc2)c(C)c1 (configuration not stated),AC50,[1],"35.5 µM [falling, single point]"
CCC(=O)NC(=S)Nc1cccc(NC(=O)c2ccccc2)c1,AC50,[1],"35.5 µM [falling, single point]"
COc1ccc(NC(=O)[C@@H](NS(=O)(=O)c2cccc(Cl)c2)C(C)C)cc1S(=O)(=O)N1CCOCC1,AC50,[1],"0.326 µM [rising, full curve, poor fit]"
CC(=O)Oc1cccc2c1C(=O)c1c(OC(C)=O)cc(C(=O)O)cc1C2=O,AC50,[1],"2.59 µM [falling, partial curve]"
O=C1CCCc2nn(-c3ccccc3)nc21,AC50,[1],"32.6 µM [rising, partial curve, poor fit]"
C=CCN(c1ccccc1)S(=O)(=O)c1cccc(C(=O)Nc2nc3ccccc3[nH]2)c1,AC50,[1],"5.8 µM [falling, partial curve]"
same,AC50,[2],"5.17 µM [rising, partial curve, poor fit]"
CSc1nnc(-c2cc(-c3ccc(C)cc3)nc3ccccc23)o1,AC50,[1],"10.3 µM [rising, partial curve, poor fit]"
CCOC(=O)c1[nH]c2c(c1C)C(=O)CC(c1ccco1)C2 (configuration not stated),AC50,[1],"0.731 µM [rising, full curve]"
same,AC50,[2],"0.517 µM [falling, full curve, poor fit]"
Cc1ccc2nc(C(F)(F)F)c(C#N)c(N)c2c1,AC50,[1],"32.6 µM [falling, single point]"
COc1ccc(S(=O)(=O)Nc2c(C(=O)O)[nH]c3ccc(OC)cc23)c(OC)c1,AC50,[1],"11.2 µM [falling, single point]"
COc1ccccc1S(=O)(=O)Nc1cccc(-c2nnc3n2CCCCC3)c1,AC50,[1],"0.0891 µM [rising, full curve, poor fit]"
Cc1cccc(NC(=O)C2(c3ccc([N+](=O)[O-])cc3)CCCC2)c1,AC50,[2],"17.8 µM [rising, partial curve, poor fit]"
COc1cc2c(cc1NS(=O)(=O)N1CCCCC1)oc1ccccc12,AC50,[1],"16.4 µM [falling, single point]"
COc1ccccc1-c1nnc2n1N=C(c1ccc(O)c(O)c1)CS2,AC50,[1],"35.5 µM [falling, single point]"
same,AC50,[2],"0.794 µM [falling, full curve]"
Cc1nnc(Nc2ccc(C(=O)N3CCOCC3)cc2)c2ccccc12,AC50,[1],"25.9 µM [falling, single point]"
O=c1c2ccccc2nc(/C=C/c2cccnc2)n1Cc1ccccc1,AC50,[1],"25.1 µM [falling, single point]"
O=C(Cc1ccccc1)NN1C(=O)/C(=C/c2ccc(C(=O)O)cc2)SC1=S,AC50,[1],"11.2 µM [falling, partial curve, poor fit]"
COc1ccc(C(=O)CNc2ccccc2Br)cc1,AC50,[1],"11.2 µM [falling, single point]"
Cc1ccc(NC(=S)N/N=C/c2c(Cl)cccc2Cl)c(C)c1,AC50,[1],"16.4 µM [rising, partial curve]"
same,AC50,[2],"18.4 µM [falling, partial curve]"
Cc1cccc(C(=O)NC(=S)NNC(=O)COc2ccc(Cl)cc2)c1,AC50,[1],"3.55 µM [rising, full curve, poor fit]"
COc1ccccc1NC(=S)NNC(=O)c1ccc(O)cc1,AC50,[1],"23.1 µM [falling, partial curve, poor fit]"
COc1ccc(NC(=O)c2cc3ccccc3[nH]2)cc1,AC50,[1],"10 µM [falling, partial curve]"
CN(C)C(=O)c1c(NC(=O)c2ccccc2)sc2c1CCC2,AC50,[1],"11.2 µM [falling, partial curve, poor fit]"
COc1ccc(N(CC(O)CN2CCCCC2)S(=O)(=O)c2ccc(C)cc2)cc1 (configuration not stated),AC50,[1],"29.1 µM [falling, single point]"
same,AC50,[2],"32.6 µM [rising, partial curve, poor fit]"
Cc1cccc2c1-c1sc(C(=O)NCCCN3CCC(C)CC3)cc1CO2,AC50,[1],"35.5 µM [falling, single point]"
CCOCCCn1c(SCc2nc3ccccc3s2)nc2ccccc2c1=O,AC50,[1],"29.1 µM [rising, single point]"
COc1ccccc1C(=O)Nc1nnc(S(=O)(=O)N2CCCCC2)s1,AC50,[1],"3.55 µM [rising, partial curve, poor fit]"
CCCSc1nc(C)nc2c1c(=O)n(C)c(=O)n2C,AC50,[1],"29.1 µM [rising, single point]"
O=C(CSc1nnc(-c2ccc(F)cc2)c2ccccc12)Nc1cccc(Cl)c1,AC50,[1],"5.8 µM [falling, partial curve]"
CC(=O)c1sc(NC(=O)c2ccccc2F)nc1C,AC50,[1],"18.4 µM [falling, partial curve]"
COC(=O)CCC(=O)OC1(C)C(=O)C2=CN(CCN3CCOCC3)C(c3ccc(OC)cc3)=CC2=C(Br)C1=O (configuration not stated),AC50,[1],"5.62 µM [rising, single point]"
COc1ccc(Cl)cc1NC(=O)c1c(NCc2cccnc2)sc2c1CCCC2,AC50,[1],"3.55 µM [rising, partial curve, poor fit]"
S=C(Nc1ccc(Br)cc1Cl)NC1CCN(Cc2ccccc2)CC1,AC50,[1],"14.1 µM [falling, single point]"
Cn1cc(C(=O)c2ccc(Cl)cc2Cl)cc1C=O,AC50,[1],"7.08 µM [falling, partial curve]"
N#C/C(=C(/O)c1ccc2c(c1)OCO2)c1nc2cc(C(F)(F)F)ccc2s1,AC50,[1],"5.62 µM [falling, partial curve]"
COc1ccccc1OCCn1c(C)c(C=O)c2ccccc21,AC50,[1],"14.1 µM [falling, single point]"
CCOc1cc(C(=O)N/N=C\c2cn(CC)nc2C)cc(OCC)c1OCC,AC50,[1],"23.1 µM [rising, partial curve]"
same,AC50,[2],"20.6 µM [falling, single point]"
CCn1c2ccccc2c2nc3cc(C(=O)O)ccc3nc21,AC50,[1],"1.58 µM [falling, partial curve]"
CCN(CC)CCNC(=O)Cn1cnc2sc(C)c(S(=O)(=O)N3CCN(c4ccccc4OC)CC3)c2c1=O,AC50,[1],"5.62 µM [falling, single point]"
O=C(C[n+]1ccccc1)N/N=C/c1ccc(C(=O)O)cc1,AC50,[1],"23.1 µM [rising, partial curve, poor fit]"
